Paper PMC5865150, “Structure and evolution of the Fam20 kinases” (Nature Communications, 2018)
These are yes or no findings as the source states them, for the method shown. Some binding calls cover weakened binding; strength is not graded here. Tags and fused reporters may be left off the sequences shown.

Chains of the proteins cited; added tags and fusions are not shown. Residues count along the entry.
UniProt Q8IXL6, residues 63-584: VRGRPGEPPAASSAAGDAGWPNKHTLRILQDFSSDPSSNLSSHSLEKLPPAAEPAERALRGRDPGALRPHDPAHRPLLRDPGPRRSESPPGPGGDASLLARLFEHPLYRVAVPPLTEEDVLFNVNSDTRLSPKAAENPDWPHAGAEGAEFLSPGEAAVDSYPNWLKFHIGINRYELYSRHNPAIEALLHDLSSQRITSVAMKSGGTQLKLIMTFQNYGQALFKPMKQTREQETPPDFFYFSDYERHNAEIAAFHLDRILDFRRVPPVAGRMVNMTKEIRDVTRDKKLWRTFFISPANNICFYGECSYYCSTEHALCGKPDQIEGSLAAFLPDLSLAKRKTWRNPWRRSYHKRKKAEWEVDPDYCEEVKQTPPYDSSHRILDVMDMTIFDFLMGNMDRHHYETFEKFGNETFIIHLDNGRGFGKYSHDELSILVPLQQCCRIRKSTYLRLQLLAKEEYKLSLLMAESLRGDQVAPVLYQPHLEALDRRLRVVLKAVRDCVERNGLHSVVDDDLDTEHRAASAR

Biological target: His6-MBP-Fam20C (human) (UniProt Q8IXL6)
Assay: pull-down; MBP pull-down on amylose resin; His6-MBP-Fam20C as bait, His6-SUMOstar-Fam20A (WT and mutants) mixed in; SDS-PAGE and Coomassie staining; both purified

- binding: binds
B1: His6-SUMOstar-Fam20A (WT) (protein, UniProt Q96MK3 34-541)
chain: QLRPRERPRGCPCTGRASSLARDSAAAASDPGTIVHNFSRTEPRTEPAGGSHSGSSSKLQALFAHPLYNVPEEPPLLGAEDSLLASQEALRYYRRKVARWNRRHKMYREQMNLTSLDPPLQLRLEASWVQFHLGINRHGLYSRSSPVVSKLLQDMRHFPTISADYSQDEKALLGACDCTQIVKPSGVHLKLVLRFSDFGKAMFKPMRQQRDEETPVDFFYFIDFQRHNAEIAAFHLDRILDFRRVPPTVGRIVNVTKEILEVTKNEILQSVFFVSPASNVCFFAKCPYMCKTEYAVCGNPHLLEGSLSAFLPSLNLAPRLSVPNPWIRSYTLAGKEEWEVNPLYCDTVKQIYPYNNSQRLLNVIDMAIFDFLIGNMDRHHYEMFTKFGDDGFLIHLDNARGFGRHSHDEISILSPLSQCCMIKKKTLLHLQLLAQADYRLSDVMRESLLEDQLSPVLTEPHLLALDRRLQTILRTVEGCIVAHGQQSVIVDGPVEQLAPDSGQANLTS
